These results are taken from paper PMC11580166, “VPS26 Moonlights as a β-Arrestin-like Adapter for a 7-Transmembrane RGS Protein in Arabidopsis thaliana” (Biochemistry, 2024).

No constants are given. Whether binding was seen depends on the method and setting.

Test [1] deals with T1, Vacuolar Protein Sorting-Associated 26B (AtVPS26B) (Arabidopsis thaliana), Q9T091.
T1 chain: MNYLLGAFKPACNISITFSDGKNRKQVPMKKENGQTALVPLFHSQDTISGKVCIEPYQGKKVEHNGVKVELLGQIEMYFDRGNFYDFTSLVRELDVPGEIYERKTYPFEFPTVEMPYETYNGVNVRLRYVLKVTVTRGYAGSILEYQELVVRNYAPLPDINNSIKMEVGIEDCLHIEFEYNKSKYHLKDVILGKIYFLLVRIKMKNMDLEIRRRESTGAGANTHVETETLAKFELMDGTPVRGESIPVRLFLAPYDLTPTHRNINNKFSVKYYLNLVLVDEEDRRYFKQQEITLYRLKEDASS
Nature of the test: mass photometry; VPS26A, VPS26B alone or mixed 1:1, in solution; typical working concentrations 5-25 nM; both purified. Conditions: remark: other sources report otherwise.

The target in test [2] is T1, Vacuolar Protein Sorting-Associated 26B …. Nature of the test: MST; 20 nM fluorescence-labelled protein (RED-NHS or RED-…), ligand dilution series, 25 °C, PBS pH 7.4, 0.05% Tween-20; apparent Kd; averages of 2 to 4 experiments; both purified. Conditions: remark: other sources report otherwise.
The target of test [3] is Vacuolar Protein Sorting-Associated 26A (AtVPS26A) (Arabidopsis thaliana) (UniProt Q9FJD0). The test can be described thus: mass photometry; VPS26A, VPS26B alone or mixed 1:1, in solution; typical working concentrations 5-25 nM; both purified.
Test [4] has the same target. Nature of the test: MST; 20 nM fluorescence-labelled protein (RED-NHS or RED-…), ligand dilution series, 25 °C, PBS pH 7.4, 0.05% Tween-20; apparent Kd; averages of 2 to 4 experiments; both purified.
Test [5] has the same target. The test is described as above. This is another data set of the same source.
Test [6] deals with Vacuolar Protein Sorting-Associated 26B (AtVPS26B) (Arabidopsis thaliana) (UniProt Q9T091). The test is described as above.

B1: Vacuolar Protein Sorting-Associated 26B (AtVPS26B), Q9T091 1-303 (protein)
chain: T1 chain
With B1, the binding entry in test [1] and in test [2] was “no binding” in each case.

B2: Vacuolar Protein Sorting-Associated 26A (AtVPS26A) (natural protein, Arabidopsis thaliana, UniProt Q9FJD0 1-302, looked up)
chain: MNYLLGAFKPACNISITFTDGKNRKQVPTKKDNGQIVMNPLFQSQETIAGKINIEPYQGKKVEHNGVKVELLGQIEMYFDRGNFYDFTSLVREIDVPGEIYERKTYPFEFSSVEMPYETYNGVNVRLRYVLKVTVTRGYAGSIVEYQDFVVRNYVPLPPINNSIKMEVGIEDCLHIEFEYNKSKYHLKDVILGKIYFLLVRIKIKNMDLEIRRRESTGAGANTHVETETLAKFELMDGAPVRGESIPVRVFLTPYDLTPTHKNINNKFSVKYYLNLVLVDEEDRRYFKQQEITLYRLKEETS
notes: AtVPS26A, Arabidopsis thaliana, UniProt Q9FJD0, gene At5g53530; Fluorescently labelled (Monolith RED-NHS or RED-MALEIMIDE kit) when it was the labelled partner in MST; the His-SUMO tag may have been kept in mass photometry (surmise); also called AtVSP26A; source: E. coli BL21 (DE3), purified (nickel resin, ULP1 cleavage, second nickel, SEC)
Regarding B2, the binding entry in test [3] and in test [4] was “no binding” each time.

B3: AtRGS1 cytoplasmic domain lacking the tail (L253-E420) (domain or fragment, UniProt Q8H1F2 253-420)
chain: LSQISLKKRQNFEFQRMGQALGIPDSGLLFRKEEFRPVDPNEPLDKLLLNKRFRHSFMEFADSCYAGETLHFFEEVYEHGKIPEDDSIRRIYMARHIMEKFIVAGAEMELNLSHKTRQEILTTQDLTHTDLFKNALNEVMQLIKMNLVRDYWSSIYFIKFKEEESCHE
With B3, the binding entry in test [5] and in test [6] was “no binding” in each case.
